Some of these results come from one statement about several compounds together.
Test system: AR
Test: AR transactivation assay, MMTV-CAT reporter, transient transfection (Example 1)
Type: cell-based, human
Conditions: DU145 cells; wild type AR; HF
Experimental: Human prostate cancer DU145 or PC3 cells, or human lung carcinoma cells NCI H1299 were grown in Dulbecco's minimal essential medium (DMEM) containing penicillin (25 U/ml), streptomycin (25˜g/ml), and 5% fetal calf serum (FCS). One hour before transfection, the medium was changed to DMEM with 5% charcoal-stripped FCS. […] A β-galactosidase expression plasmid, pCMV-β-gal, was used as an internal control for transfection efficiency.
The medium was changed 24 hr posttransfection and the cells treated with either steroid hormones or hydroxyflutamide, and cultured for an additional 24 hr. Cells were harvested and assayed for CAT activity after the cell lysates were normalized by using β-galactosidaseas an internal control. Chloramphenicol acetyltransferase (CA) activity was visualized by PhosphorImager (Molecular Dynamics) and quantitated by ImageQuant software (Molecular Dynamics).

B1: Rb: retinoblastoma protein (protein, UniProt P06400 2-928, looked up)
Retinoblastoma-associated …: PPKTPRKTAATAAAAAAEPPAPPPPPPPEEDPEQDSGPEDLPLVRLEFEETEEPDFTALCQKLKIPDHVRERAWLTWEKVSSVDGVLGGYIQKKKELWGICIFIAAVDLDEMSFTFTELQKNIEISVHKFFNLLKEIDTSTKVDNAMSRLLKKYDVLFALFSKLERTCELIYLTQPSSSISTEINSALVLKVSWITFLLAKGEVLQMEDDLVISFQLMLCVLDYFIKLSPPMLLKEPYKTAVIPINGSPRTPRRGQNRSARIAKQLENDTRIIEVLCKEHECNIDEVKNVYFKNFIPFMNSLGLVTSNGLPEVENLSKRYEEIYLKNKDLDARLFLDHDKTLQTDSIDSFETQRTPRKSNLDEEVNVIPPHTPVRTVMNTIQQLMMILNSASDQPSENLISYFNNCTVNPKESILKRVKDIGYIFKEKFAKAVGQGCVEIGSQRYKLGVRLYYRVMESMLKSEEERLSIQNFSKLLNDNIFHMSLLACALEVVMATYSRSTSQNLDSGTDLSFPWILNVLNLKAFDFYKVIESFIKAEGNLTREMIKHLERCEHRIMESLAWLSDSPLFDLIKQSKDREGPTDHLESACPLNLPLQNNHTAADMYLSPVRSPKKKGSTTRVNSTANAETQATSAFQTQKPLKSTSLSLFYKKVYRLAYLRLNTLCERLLSEHPELEHIIWTLFQHTLQNEYELMRDRHLDQIMMCSMYGICKVKNIDLKFKIIVTAYKDLPHAVQETFKRVLIKEEEYDSIIVFYNSVFMQRLKTNILQYASTRPPTLSPIPHIPRSPYKFPSSPLRIPGGNIYISPLKSPYKISEGLPTPTKMTPRSRILVSIGESFGTSEKFQKINQMVCNSDRVLKRSAEGSNPPKPLKKLRFDIEGSDEADGSKHLPGESKFQQKLAEMTSTRTRMQKQKMNDSMDTSNKEEK
  AR transcription activity with cotransfected coactivator: 3-4 fold
